Test results taken from PMC9867894.
Results are given in words; binding and its absence hold for the method and conditions named. Binding seen in cells or lysates may run through a third protein. Some binding calls cover weakened binding; strength is not graded here.

Amino acid sequences for entries named in this document (tags omitted).
UniProt P97481: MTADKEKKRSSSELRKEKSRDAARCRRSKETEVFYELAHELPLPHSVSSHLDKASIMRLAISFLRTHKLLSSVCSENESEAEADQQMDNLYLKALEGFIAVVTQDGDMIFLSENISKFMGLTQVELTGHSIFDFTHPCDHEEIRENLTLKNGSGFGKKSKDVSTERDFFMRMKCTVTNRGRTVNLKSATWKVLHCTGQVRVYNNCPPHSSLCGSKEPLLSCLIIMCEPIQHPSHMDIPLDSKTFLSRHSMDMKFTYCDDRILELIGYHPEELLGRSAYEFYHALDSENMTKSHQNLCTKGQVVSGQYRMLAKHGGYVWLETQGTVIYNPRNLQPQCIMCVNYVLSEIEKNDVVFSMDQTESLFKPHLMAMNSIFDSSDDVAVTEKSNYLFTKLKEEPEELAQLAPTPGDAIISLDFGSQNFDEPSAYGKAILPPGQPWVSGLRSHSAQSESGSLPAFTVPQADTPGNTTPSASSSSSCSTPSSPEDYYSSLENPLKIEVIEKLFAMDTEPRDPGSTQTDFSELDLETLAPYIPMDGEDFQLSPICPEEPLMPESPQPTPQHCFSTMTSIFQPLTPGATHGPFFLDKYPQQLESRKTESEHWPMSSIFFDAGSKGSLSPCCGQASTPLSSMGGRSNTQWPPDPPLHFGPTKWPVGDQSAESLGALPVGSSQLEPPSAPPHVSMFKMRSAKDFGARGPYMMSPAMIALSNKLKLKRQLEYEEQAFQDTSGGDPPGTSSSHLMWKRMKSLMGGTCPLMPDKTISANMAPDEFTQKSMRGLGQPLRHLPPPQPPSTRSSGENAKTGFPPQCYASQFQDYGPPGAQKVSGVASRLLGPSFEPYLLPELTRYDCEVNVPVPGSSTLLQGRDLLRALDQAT
UniProt Q64104: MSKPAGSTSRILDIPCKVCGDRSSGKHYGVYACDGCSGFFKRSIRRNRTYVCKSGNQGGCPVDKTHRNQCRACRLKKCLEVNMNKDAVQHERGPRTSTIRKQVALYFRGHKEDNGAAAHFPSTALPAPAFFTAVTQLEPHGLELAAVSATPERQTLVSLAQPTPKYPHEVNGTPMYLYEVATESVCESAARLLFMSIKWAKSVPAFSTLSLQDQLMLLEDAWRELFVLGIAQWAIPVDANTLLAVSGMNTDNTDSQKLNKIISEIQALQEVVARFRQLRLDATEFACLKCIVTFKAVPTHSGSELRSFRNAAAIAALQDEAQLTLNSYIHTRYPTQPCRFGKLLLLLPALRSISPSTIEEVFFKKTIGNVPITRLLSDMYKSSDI

Experiments:
[1] = biological target: hypoxia inducible factor-2α (HIF2α) (mouse (endogenous in retina)) (UniProt P97481); experiment: co-IP; retinal lysates of P4 WT mice (20 mM Tris HCl pH 8, 150 mM NaCl, 1% Triton X-100, 2 mM EDTA) incubated with anti-TLX, anti-HIF2α or nonspecific immunoglobulins (5 µg/ml, 4°C, overnight), Protein G magnetic beads, Western blotting
[2] = biological target: Tailless (TLX, an orphan nuclear receptor) (mouse (endogenous in retina)) (UniProt Q64104); experiment: as above

Substance | binding [1] | binding [2]
Tailless (TLX, an orphan nuclear receptor) (from UniProt Q64104 1-385) | binds | –
hypoxia inducible factor-2α (HIF2α) (from UniProt P97481 1-874) | – | binds
